Results are given in words; binding and its absence hold for the method and conditions named. Binding seen in cells or lysates may run through a third protein. Some results given as binding are weak or reduced against the parent protein; the word gives no strength.
Target: RAB11A (human (endogenous in SH-SY5Y)) (UniProt P62491)
Assay: proximity ligation; Duolink In Situ Red kit on fixed, permeabilised SH-SY5Y cells infected with EV-A71 S41 (MOI 0.1), 24 h.p.i.; uninfected cells too for CCT8 with RAB11A; pairs of mouse and rabbit primary antibodies

Chains of the proteins cited; added tags and fusions are not shown.
UniProt P62491: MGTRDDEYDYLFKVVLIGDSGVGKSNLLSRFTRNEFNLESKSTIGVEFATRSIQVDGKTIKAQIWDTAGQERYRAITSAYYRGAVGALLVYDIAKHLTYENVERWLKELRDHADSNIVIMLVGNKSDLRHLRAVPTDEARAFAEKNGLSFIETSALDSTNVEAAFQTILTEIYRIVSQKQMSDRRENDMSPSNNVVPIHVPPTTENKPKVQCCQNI
UniProt P50990: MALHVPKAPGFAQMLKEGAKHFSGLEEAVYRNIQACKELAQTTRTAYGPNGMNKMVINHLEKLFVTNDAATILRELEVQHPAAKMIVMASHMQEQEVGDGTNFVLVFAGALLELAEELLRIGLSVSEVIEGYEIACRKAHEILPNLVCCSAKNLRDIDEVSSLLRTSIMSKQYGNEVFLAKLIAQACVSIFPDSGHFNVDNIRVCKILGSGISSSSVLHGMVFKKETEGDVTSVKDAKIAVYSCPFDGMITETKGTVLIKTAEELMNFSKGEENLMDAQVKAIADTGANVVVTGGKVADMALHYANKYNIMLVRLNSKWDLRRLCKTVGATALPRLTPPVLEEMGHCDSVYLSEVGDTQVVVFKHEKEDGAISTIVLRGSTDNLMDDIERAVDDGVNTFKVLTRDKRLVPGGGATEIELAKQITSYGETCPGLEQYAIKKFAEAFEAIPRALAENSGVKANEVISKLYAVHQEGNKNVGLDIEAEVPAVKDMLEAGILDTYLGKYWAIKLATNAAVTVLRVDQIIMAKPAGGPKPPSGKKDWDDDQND

With CCT8 (from UniProt P50990 1-548) as the substance, how does the binding read?
Its binding is “binds”.

From PMC11212238
